The values that follow come from doi:10.1101/2022.12.14.520480.

Protein sequences, listed by entry. Tags and fused reporters are not part of them.
UniProt Q00610: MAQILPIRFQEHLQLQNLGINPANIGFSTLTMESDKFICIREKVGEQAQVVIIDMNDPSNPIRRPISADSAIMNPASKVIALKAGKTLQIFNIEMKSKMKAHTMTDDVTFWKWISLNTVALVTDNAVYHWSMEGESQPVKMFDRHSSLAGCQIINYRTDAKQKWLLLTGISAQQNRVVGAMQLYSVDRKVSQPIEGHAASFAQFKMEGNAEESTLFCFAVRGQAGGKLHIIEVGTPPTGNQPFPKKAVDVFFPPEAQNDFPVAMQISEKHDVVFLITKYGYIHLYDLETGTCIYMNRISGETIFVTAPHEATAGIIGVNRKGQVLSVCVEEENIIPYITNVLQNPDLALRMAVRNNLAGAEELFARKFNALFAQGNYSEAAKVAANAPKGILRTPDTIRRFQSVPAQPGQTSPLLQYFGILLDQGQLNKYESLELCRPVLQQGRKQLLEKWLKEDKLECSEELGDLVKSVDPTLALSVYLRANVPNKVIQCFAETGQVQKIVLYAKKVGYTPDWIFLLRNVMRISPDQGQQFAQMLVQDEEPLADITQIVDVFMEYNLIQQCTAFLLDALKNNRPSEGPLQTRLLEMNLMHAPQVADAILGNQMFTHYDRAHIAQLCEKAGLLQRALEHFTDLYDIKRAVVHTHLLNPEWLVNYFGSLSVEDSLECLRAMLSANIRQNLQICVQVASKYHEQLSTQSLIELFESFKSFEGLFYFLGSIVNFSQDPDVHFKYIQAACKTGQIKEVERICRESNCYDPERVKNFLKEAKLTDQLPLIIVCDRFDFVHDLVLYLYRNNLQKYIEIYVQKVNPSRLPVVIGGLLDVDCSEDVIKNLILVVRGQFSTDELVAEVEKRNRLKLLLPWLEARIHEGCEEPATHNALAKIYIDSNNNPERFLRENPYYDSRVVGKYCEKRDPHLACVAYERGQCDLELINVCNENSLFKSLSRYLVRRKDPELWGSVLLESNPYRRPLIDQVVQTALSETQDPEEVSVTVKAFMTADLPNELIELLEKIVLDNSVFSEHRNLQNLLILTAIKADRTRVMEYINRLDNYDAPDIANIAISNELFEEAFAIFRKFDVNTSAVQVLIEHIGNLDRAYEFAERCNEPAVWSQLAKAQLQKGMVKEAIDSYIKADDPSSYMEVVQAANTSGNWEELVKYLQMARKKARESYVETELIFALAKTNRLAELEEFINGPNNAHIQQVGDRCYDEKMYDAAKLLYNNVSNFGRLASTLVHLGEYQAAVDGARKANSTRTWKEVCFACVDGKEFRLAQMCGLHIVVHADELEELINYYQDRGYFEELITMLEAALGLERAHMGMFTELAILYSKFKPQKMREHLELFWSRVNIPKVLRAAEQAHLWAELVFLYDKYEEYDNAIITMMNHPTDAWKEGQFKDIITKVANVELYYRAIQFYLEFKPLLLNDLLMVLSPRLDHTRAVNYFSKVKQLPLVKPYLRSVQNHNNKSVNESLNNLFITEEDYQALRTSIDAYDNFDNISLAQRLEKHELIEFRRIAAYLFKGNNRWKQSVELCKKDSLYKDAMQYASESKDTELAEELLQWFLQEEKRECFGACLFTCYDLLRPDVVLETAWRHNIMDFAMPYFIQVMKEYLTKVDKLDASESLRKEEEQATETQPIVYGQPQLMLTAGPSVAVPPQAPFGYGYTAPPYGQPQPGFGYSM

Results are given in words; binding and its absence hold for the method and conditions named. In cells and extracts the contact can be indirect. Some results given as binding are weak or reduced against the parent protein; the word gives no strength. For some assays here: Where a sequence is shown, tags or fusion partners need not be part of it.

Experiment [1] deals with T1, Dynamin2 (endogenous) (human (endogenous in HeLa and HEK 293T)) (UniProt P50570).
T1 sequence: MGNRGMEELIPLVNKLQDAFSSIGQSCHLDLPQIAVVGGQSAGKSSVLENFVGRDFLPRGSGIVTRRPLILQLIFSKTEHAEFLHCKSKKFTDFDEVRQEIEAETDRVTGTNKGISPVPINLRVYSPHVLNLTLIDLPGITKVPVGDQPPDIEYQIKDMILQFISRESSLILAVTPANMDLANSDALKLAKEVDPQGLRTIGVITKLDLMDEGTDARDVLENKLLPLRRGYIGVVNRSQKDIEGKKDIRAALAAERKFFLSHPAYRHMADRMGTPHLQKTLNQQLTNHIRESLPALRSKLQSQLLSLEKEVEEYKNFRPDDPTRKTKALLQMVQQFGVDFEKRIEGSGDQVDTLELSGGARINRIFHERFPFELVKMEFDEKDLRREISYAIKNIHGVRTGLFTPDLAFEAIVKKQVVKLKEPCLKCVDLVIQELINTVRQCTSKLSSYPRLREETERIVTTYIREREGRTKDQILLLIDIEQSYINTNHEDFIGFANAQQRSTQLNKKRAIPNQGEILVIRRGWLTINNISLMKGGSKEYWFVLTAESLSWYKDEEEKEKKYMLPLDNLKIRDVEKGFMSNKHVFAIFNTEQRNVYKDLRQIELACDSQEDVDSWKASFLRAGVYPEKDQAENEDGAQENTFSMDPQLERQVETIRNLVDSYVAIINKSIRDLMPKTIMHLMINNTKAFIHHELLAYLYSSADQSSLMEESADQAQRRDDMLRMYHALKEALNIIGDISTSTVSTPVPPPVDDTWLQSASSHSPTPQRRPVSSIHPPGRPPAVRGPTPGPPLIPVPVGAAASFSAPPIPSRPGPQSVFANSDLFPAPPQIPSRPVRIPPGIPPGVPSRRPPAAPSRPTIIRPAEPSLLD
Nature of the experiment: co-IP.

In experiment [2] the target is T2, GST-TBC1D15 ΔCter (amino acids 1–399) (UniProt Q8TC07).
T2 sequence: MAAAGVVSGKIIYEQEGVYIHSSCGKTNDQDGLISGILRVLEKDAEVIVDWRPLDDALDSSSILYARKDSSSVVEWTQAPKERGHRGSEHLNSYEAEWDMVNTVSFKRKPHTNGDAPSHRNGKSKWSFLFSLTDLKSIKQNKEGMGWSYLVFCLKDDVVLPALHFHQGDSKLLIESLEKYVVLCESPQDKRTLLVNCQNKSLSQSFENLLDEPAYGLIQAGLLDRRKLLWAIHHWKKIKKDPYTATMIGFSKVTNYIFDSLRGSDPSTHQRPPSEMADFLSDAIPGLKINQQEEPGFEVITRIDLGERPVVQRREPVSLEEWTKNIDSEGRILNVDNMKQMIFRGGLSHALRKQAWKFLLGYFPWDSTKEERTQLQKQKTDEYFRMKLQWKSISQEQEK
Description: pull-down.

Take “Clathrin heavy chain CLTC (endogenous) (from UniProt Q00610 1-1675)”: the binding entry in experiment [1] and in experiment [2] was “binds” throughout.
